In article PMC5309220, “Screening for Small Molecule Inhibitors of Statin-Induced APP C-terminal Toxic Fragment Production” (Frontiers in Pharmacology, 2017):

Columns and labels:
[1] = system: cerivastatin-induced APPΔC31 in CHO-7W cells; assay: APPΔC31 AlphaLISA dose-response, cerivastatin-induced; type: cell-based, Chinese hamster; conditions: Cricetulus griseus, (A) AlphaLISA, 24 h, read-out: IC50 (A), APPΔC31 inhibition
Protocol: The APPΔC31 AlphaLISA assay (Figures 2C–E) was run directly in the plate with the cell lysate as described above in “AlphaLISA to detect APPΔC31.” APPΔC31 levels were measured using the Envision plate reader and data were normalized to DMSO (100% APPΔC31 production) and Q-VD-OPh (MP Biomedicals) pan-caspase inhibitor at 30 μM (0%); these controls were present on each plate. In addition, some compounds of interest were further analyzed in a dose-response curve to determine IC50 values.
Since APPΔC31 is generated by caspase cleavage and we found some MEK inhibitors in our HTS, select caspase and MEK inhibitors were also tested for inhibition of cerivastatin-induced APPΔC31 in CHO-7W cells for 24 h using dose-response curves determined by AlphaLISA (Supplementary Figure S3B). […] The broad-spectrum pan-caspase inhibitor Q-VD-OPh served as the positive control. […] The MEK inhibitor SL327 was ineffective.
Supplementary file Data_Sheet_1.docx: FIGURE S3 Dose-response curves of APPΔC31 inhibition by thapsigargin and select caspase and MEK inhibitors (A) CHO-7W cells were treated with 10 μM cerivastatin plus increasing doses of thapsigargin for 24 h. Lysates were prepared and APPΔC31 determined by ELISA. (B) CHO-7W cells were treated with 10 μM cerivastatin plus increasing doses of caspase and MEK inhibitors for 24 h. Lysates were prepared and APPΔC31 determined by AlphaLISA. […]

[2] = system: cerivastatin-induced APPΔC31 production in CHO-7W cells; assay: APPΔC31 ELISA validation assay, cerivastatin-induced; type: cell-based, Chinese hamster; conditions: 10 μM cerivastatin, 24 h, test concentration not given
Protocol: The APPΔC31 ELISA developed in partnership with Enzo Life Sciences (ADI-900-227) follows a standard sandwich ELISA design wherein a monoclonal N-terminal APP-specific antibody is used to coat the wells of the microtiter plate (capture antibody) and the anti-APPΔC31 cleavage site-specific polyclonal antibody serves as the detection antibody. An HRP-conjugated secondary antibody is then added and a colorimetric signal generated by enzymatic conversion of the tetramethylbenzidine (TMB) substrate. Protein levels were first determined using a colorimetric coomassie assay (Coomassie Plus, Thermo).
A subset of hits from our HTS was validated in a secondary assay. […] Thapsigargin also acts as a sarco/endoplasmic reticulum calcium ATPase (SERCA) inhibitor. Therefore, another SERCA inhibitor, 2,5-Di-tert-butylhydroquinone, was also added to the testing. In this secondary assay, CHO-7W cells were cultured as described above and plated into 24-well dishes at ∼200K/well. […] These hits were selected for their potency in primary screen, their structural features, their known activities, and availability of compound for additional testing. There were cerivastatin-only (negative control), + QVD-OPh (positive control), and for viability, vehicle-only (negative) controls. Cells were harvested by removing the media to a tube, adding […] trypsin to detach cells then neutralizing with media. […]

[3] = PAMPA / immobilized artificial membrane (IAM.PC.DD2) chromatography; type: in vitro ADME; conditions: IAM.PC.DD2 column
[4] = system: cerivastatin-induced APPΔC31 in I5 mouse hippocampal slice cultures; assay: Ex vivo organotypic hippocampal slice cultures, APPΔC31 ELISA; conditions: 72 h, read-out: inhibition of APPΔC31 production

Q: For `O=C(CCCN1CCC2(CC1)C(=O)NCN2c1ccccc1)c1ccc(F)cc1` [Spiperone], which IC50 [1] is on record?
A: 4.6 µM

Q: And the “APPΔC31 Inh. (mean %)” value [2]?
A: 41%

Q: What about the “KIAM (IAM capacity factor)” value ([3]; water/methanol gradient) of the same compound?
A: 3.1

Q: And the “KIAM/MW^4 x 10^10” value ([3]; correlation of Yoon et al. (2006))?
A: 1.85

Q: And the inhibition at 10 µM [4]?
A: ~14%
